B1: WFKN2 (protein, UniProt Q8TEU8 35-576, looked up)
WAP, Kazal, immunoglobulin, …: LPPIRYSHAGICPNDMNPNLWVDAQSTCRRECETDQECETYEKCCPNVCGTKSCVAARYMDVKGKKGPVGMPKEATCDHFMCLQQGSECDIWDGQPVCKCKDRCEKEPSFTCASDGLTYYNRCYMDAEACSKGITLAVVTCRYHFTWPNTSPPPPETTMHPTTASPETPELDMAAPALLNNPVHQSVTMGETVSFLCDVVGRPRPEITWEKQLEDRENVVMRPNHVRGNVVVTNIAQLVIYNAQLQDAGIYTCTARNVAGVLRADFPLSVVRGHQAAATSESSPNGTAFPAAECLKPPDSEDCGEEQTRWHFDAQANNCLTFTFGHCHRNLNHFETYEACMLACMSGPLAACSLPALQGPCKAYAPRWAYNSQTGQCQSFVYGGCEGNGNNFESREACEESCPFPRGNQRCRACKPRQKLVTSFCRSDFVILGRVSELTEEPDSGRALVTVDEVLKDEKMGLKFLGQEPLEVTLLHVDWACPCPNVTVSEMPLIIMGEVDGGMAMLRPDSFVGASSARRVRKLREVMHKKTCDVLKEFLGLH
B2: Activin RIB (protein, UniProt P36896 24-505, looked up)
Activin receptor type-1B: SGPRGVQALLCACTSCLQANYTCETDGACMVSIFNLDGMEHHVRTCIPKVELVPAGKPFYCLSSEDLRNTHCCYTDYCNRIDLRVPSGHLKEPEHPSMWGPVELVGIIAGPVFLLFLIIIIVFLVINYHQRVYHNRQRLDMEDPSCEMCLSKDKTLQDLVYDLSTSGSGSGLPLFVQRTVARTIVLQEIIGKGRFGEVWRGRWRGGDVAVKIFSSREERSWFREAEIYQTVMLRHENILGFIAADNKDNGTWTQLWLVSDYHEHGSLFDYLNRYTVTIEGMIKLALSAASGLAHLHMEIVGTQGKPGIAHRDLKSKNILVKKNGMCAIADLGLAVRHDAVTDTIDIAPNQRVGTKRYMAPEVLDETINMKHFDSFKCADIYALGLVYWEIARRCNSGGVHEEYQLPYYDLVPSDPSIEEMRKVVCDQKLRPNIPNWWQSYEALRVMGKMMRECWYANGAARLTALRIKKTLSQLSVQEDVKI
B3: AFP (protein, UniProt P02771 19-609, looked up)
Alpha-fetoprotein: RTLHRNEYGIASILDSYQCTAEISLADLATIFFAQFVQEATYKEVSKMVKDALTAIEKPTGDEQSSGCLENQLPAFLEELCHEKEILEKYGHSDCCSQSEEGRHNCFLAHKKPTPASIPLFQVPEPVTSCEAYEEDRETFMNKFIYEIARRHPFLYAPTILLWAARYDKIIPSCCKAENAVECFQTKAATVTKELRESSLLNQHACAVMKNFGTRTFQAITVTKLSQKFTKVNFTEIQKLVLDVAHVHEHCCRGDVLDCLQDGEKIMSYICSQQDTLSNKITECCKLTTLERGQCIIHAENDEKPEGLSPNLNRFLGDRDFNQFSSGEKNIFLASFVHEYSRRHPQLAVSVILRVAKGYQELLEKCFQTENPLECQDKGEEELQKYIQESQALAKRSCGLFQKLGEYYLQNAFLVAYTKKAPQLTSSELMAITRKMAATAATCCQLSEDKLLACGEGAADIIIGHLCIRHEMTPVNPGVGQCCTSSYANRRPCFSSLVVDETYVPPAFSDDKFIFHKDLCQAQGVALQTMKQEFLINLVKQKPQITEEQLEAVIADFSGLLEKCCQGQEQEVCFAEEGQKLISKTRAALGV
B4: Ephrin-A5 (protein, UniProt P52803 21-203, looked up)
Ephrin-A5: QDPGSKAVADRYAVYWNSSNPRFQRGDYHIDVCINDYLDVFCPHYEDSVPEDKTERYVLYMVNFDGYSACDHTSKGFKRWECNRPHSPNGPLKFSEKFQLFTPFSLGFEFRPGREYFYISSAIPDNGRRSCLKLKVFVRPTNSCMKTIGVHDRVFDVNDKVENSLEPADDTVHESAEPSRGEN
B5: FTCD (protein, UniProt O95954 1-541, looked up)
Formimidoyltransferase-cyclode …: MSQLVECVPNFSEGKNQEVIDAISGAITQTPGCVLLDVDAGPSTNRTVYTFVGPPECVVEGALNAARVASRLIDMSRHQGEHPRMGALDVCPFIPVRGVSVDECVLCAQAFGQRLAEELDVPVYLYGEAARMDSRRTLPAIRAGEYEALPKKLQQADWAPDFGPSSFVPSWGATATGARKFLIAFNINLLGTKEQAHRIALNLREQGRGKDQPGRLKKVQGIGWYLDEKNLAQVSTNLLDFEVTALHTVYEETCREAQELSLPVVGSQLVGLVPLKALLDAAAFYCEKENLFILEEEQRIRLVVSRLGLDSLCPFSPKERIIEYLVPERGPERGLGSKSLRAFVGEVGARSAAPGGGSVAAAAAAMGAALGSMVGLMTYGRRQFQSLDTTMRRLIPPFREASAKLTTLVDADAEAFTAYLEAMRLPKNTPEEKDRRTAALQEGLRRAVSVPLTLAETVASLWPALQELARCGNLACRSDLQVAAKALEMGVFGAYFNVLINLRDITDEAFKDQIHHRVSSLLQEAKTQAALVLDCLETRQE
B6: Endoglin (protein, UniProt P17813 26-658, looked up)
Endoglin: ETVHCDLQPVGPERGEVTYTTSQVSKGCVAQAPNAILEVHVLFLEFPTGPSQLELTLQASKQNGTWPREVLLVLSVNSSVFLHLQALGIPLHLAYNSSLVTFQEPPGVNTTELPSFPKTQILEWAAERGPITSAAELNDPQSILLRLGQAQGSLSFCMLEASQDMGRTLEWRPRTPALVRGCHLEGVAGHKEAHILRVLPGHSAGPRTVTVKVELSCAPGDLDAVLILQGPPYVSWLIDANHNMQIWTTGEYSFKIFPEKNIRGFKLPDTPQGLLGEARMLNASIVASFVELPLASIVSLHASSCGGRLQTSPAPIQTTPPKDTCSPELLMSLIQTKCADDAMTLVLKKELVAHLKCTITGLTFWDPSCEAEDRGDKFVLRSAYSSCGMQVSASMISNEAVVNILSSSSPQRKKVHCLNMDSLSFQLGLYLSPHFLQASNTIEPGQQSFVQVRVSPSVSEFLLQLDSCHLDLGPEGGTVELIQGRAAKGNCVSLLSPSPEGDPRFSFLLHFYTVPIPKTGTLSCTVALRPKTGSQDQEVHRTVFMRLNIISPDLSGCTSKGLVLPAVLGITFGAFLIGALLTAALWYIYSHTRSPSKREPVVAVAAPASSESSSTNHSIGSTQSTPCSTSSMA
B7: DSC3 (protein, UniProt Q14574 136-896, looked up)
Desmocollin-3: RWAPIPCSMQENSLGPFPLFLQQVESDAAQNYTVFYSISGRGVDKEPLNLFYIERDTGNLFCTRPVDREEYDVFDLIAYASTADGYSADLPLPLPIRVEDENDNHPVFTEAIYNFEVLESSRPGTTVGVVCATDRDEPDTMHTRLKYSILQQTPRSPGLFSVHPSTGVITTVSHYLDREVVDKYSLIMKVQDMDGQFFGLIGTSTCIITVTDSNDNAPTFRQNAYEAFVEENAFNVEILRIPIEDKDLINTANWRVNFTILKGNENGHFKISTDKETNEGVLSVVKPLNYEENRQVNLEIGVNNEAPFARDIPRVTALNRALVTVHVRDLDEGPECTPAAQYVRIKENLAVGSKINGYKAYDPENRNGNGLRYKKLHDPKGWITIDEISGSIITSKILDREVETPKNELYNITVLAIDKDDRSCTGTLAVNIEDVNDNPPEILQEYVVICKPKMGYTDILAVDPDEPVHGAPFYFSLPNTSPEISRLWSLTKVNDTAARLSYQKNAGFQEYTIPITVKDRAGQAATKLLRVNLCECTHPTQCRATSRSTGVILGKWAILAILLGIALLFSVLLTLVCGVFGATKGKRFPEDLAQQNLIISNTEAPGDDRVCSANGFMTQTTNNSSQGFCGTMGSGMKNGGQETIEMMKGGNQTLESCRGAGHHHTLDSCRGGHTEVDNCRYTYSEWHSFTQPRLGEKLHRCNQNEDRMPSQDYVLTYNYEGRGSPAGSVGCCSEKQEEDGLDFLNNLEPKFITLAEACTKR

The first data set is described as follows: SOMAscan serum proteomics in NASH subjects treated with selonsertib/simtuzumab, baseline and week 24. The arrangement: species or system human. As to conditions: serum protein marker level; CRN fibrosis stage improvers; week 24 vs baseline.
On to B1, for which the “Median percent CHG at W24 in improver” value is recorded as −2.98%.

B2: the “Median percent CHG at W24 in improver” value stood at 0.64%.

Regarding B3, the “Median percent CHG at W24 in improver” value came out at 1.07%.

Consider B4, for which the “Median percent CHG at W24 in improver” value is −0.13%.

Take B5: the “Median percent CHG at W24 in improver” value is given as −42.29%.

In the case of B6, the “Median percent CHG at W24 in improver” value is listed as −3.86%.

For B7, the “Median percent CHG at W24 in improver” value amounted to 6.37%.

Still in this data set, the particulars now being: serum protein marker level; CRN fibrosis stage non-improvers; week 24 vs baseline.
As to B1, the “Median percent CHG at W24 in Non-improver” value is on record as 0.47%.

As for B2, the “Median percent CHG at W24 in Non-improver” value was −2.91%.

As for B3, the “Median percent CHG at W24 in Non-improver” value is reported as −0.39%.

On to B4, for which the “Median percent CHG at W24 in Non-improver” value is on record as 5.39%.

As for B5, the “Median percent CHG at W24 in Non-improver” value was −6.71%.

Regarding B6, the “Median percent CHG at W24 in Non-improver” value was found to be 1.62%.

As to B7, the “Median percent CHG at W24 in Non-improver” value worked out at 1.23%.

For the origin of these results see patent publication US20200340060A1, “COMPOSITIONS AND METHODS FOR IDENTIFYING AND TREATING LIVER DISEASES AND MONITORING TREATMENT OUTCOMES” (Gilead Sciences, Inc., priority 2017, published 2020).
